Measurements reported in PubChem BioAssay AID1508587 (Peter MacCallum Cancer Centre, 2020)
Aim: 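Follow-up of vemurafenib sensitisers scored by lactate made per cell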 (follow-up of hits). Cells: human WM266.4 melanoma cells with a BRAF V600 mutation. Knock-down reagent: single siRNA against human genes, 25 nM. Duration: 96 h. Challenge: vemurafenib 300 nM (about IC25), given 48 h after transfection for 48 h. Measurement: 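Medium lactate read by absorbance over DAPI-counted nuclei; ratio with versus without vemurafenib, set against non-targeting siRNA, averaged over 2 replicates; cell number also recorded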. Reading the numbers: lactate per cell, drug vs no drug: higher = less drug-induced drop in lactate per cell. Active means: 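a duplex is active when its lactate-per-cell ratio with versus without drug falls under 0.55, i.e. 2 SD below non-targeting; a gene is confirmed if 2 or more of 4 duplexes pass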.
Here is an unselected part of about 1,600 reagents. 623 of all reagents (39%) count as active. 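Calls are for each duplex; lactate ratios contain extreme outliers.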 Reagents against one gene are numbered here. Further read-outs or replicates are left out here.

lactate per cell, drug vs no drug, by gene knocked down and reagent
INPP5A: #1 0.56 inactive; #2 0.58 inactive; #3 0.46 active; #4 0.4 active
CSKMT: #1 0.74 inactive; #2 0.47 active; #3 0.57 inactive; #4 0.76 inactive
SYNGAP1: #1 0.48 active; #2 0.6 inactive; #3 0.6 inactive; #4 0.44 active
AXL: #1 0.62 inactive; #2 0.61 inactive; #3 0.41 active; #4 0.54 active
ARHGAP24: #1 0.46 active; #2 0.5 active; #3 0.31 active; #4 0.32 active
PRY2: #1 0.84 inactive; #2 0.52 active; #3 0.64 inactive; #4 0.63 inactive
PRELP: #1 0.57 inactive; #2 0.65 inactive; #3 0.55 inactive; #4 0.58 inactive
FOLH1B: #1 0.54 active; #2 0.64 inactive; #3 0.62 inactive; #4 0.68 inactive
KCTD8: #1 0.48 active; #2 0.55 inactive; #3 0.78 inactive; #4 0.55 inactive

Laid out differently: results already given
{"gene knocked down":"CSKMT","reagent":4,"lactate per cell, drug vs no drug":0.76,"Outcome":"inactive"}
{"gene knocked down":"SYNGAP1","reagent":1,"lactate per cell, drug vs no drug":0.48,"Outcome":"active"}
{"gene knocked down":"SYNGAP1","reagent":2,"lactate per cell, drug vs no drug":0.6,"Outcome":"inactive"}
